Laboratory results from PubChem BioAssay AID1487 (National Center for Advancing Translational Sciences (NCATS), 2009).
Hit rate of the full screen: of about 200,000 compounds, about 25 (0.01%) were called active. Inconclusive means that the source gave no clear call. Such entries were picked first, then a sample of the others. Calls follow the shape of the dose curve; as a rule, active = well fitted inhibition curve with a large enough effect in the signal ratio, with a control signal flat (not every such curve was filed as active); inconclusive = small, poorly fitted or top-dose-only effect, or effect the other way, or a change in a side signal; inactive = flat fitted curve, though single readings scatter; the % refers to the signal ratio. A potency beside an inconclusive call is a rough fit, not a confirmed value.

Assay: qHTS Assay for Modulators of Lamin A Splicing
Conditions: HeLa LMNA splicing GFP/RFP minigene ratio, 48 h; ratio change, negative = inhibition: at 46.1 µM (top of the series) unless noted
Method in brief: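 S3 HeLa cells stably expressing lamin A-EGFP splicing minigene plus DsRed2, 600 cells/well, 48 h compound exposure at 37C. Laser-scanning cytometry; analysed as GFP (500-530 nm)/RFP (575-640 nm) total intensity ratio; 0.5% DMSO vehicle.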
% is scaled to controls: 0 for no effect and ±100 for the full control effect; potency is read from the fitted curve at half-maximal effect.

Row | SMILES | Potency | ratio change, negative = inhibition
1 | CC(C)COCC(CN(Cc1ccccc1)c1ccccc1)N1CCCC1 (stereo not given) | inconclusive: 31.6 µM [inhibitor, single point] | –
2 | CC1=C(Sc2nc3ccccc3[nH]2)C(=O)NC(C)(C)C1 | – | inconclusive: -0.308%
3 | Cc1ccc(/C=c2\sc3nc(-c4ccccc4Br)nn3c2=O)o1 | – | inactive
4 | CCOC(=O)c1cnc(N2CCN(c3cccc(C)c3C)CC2)c2ccccc12 | – | inconclusive: -27.8% [at 46 µM]
5 | O=C(NNc1cc(Cl)ccc1Cl)c1cccnc1Cl | – | inconclusive: 12.1% [at 46 µM]
6 | S=C(Nc1ccccc1)N1CCCCC1 | – | inactive
7 | CCCCOc1ccc(OC(=O)c2cccnc2)cc1 | inconclusive: 10 µM [inhibitor, partial curve] | –
8 | COc1ccccc1NC1=C(N2CCCCC2)C(=O)c2ccccc2C1=O | – | inconclusive: 425%
9 | COc1ccc([N+](=O)[O-])cc1/C=N/Nc1nc(N2CCCCC2)nc(N2CCCCC2)n1 | – | inconclusive: 9.83% [at 9.22 µM]
10 | O=C(COC(=O)c1cc(Br)ccc1O)Nc1cc(S(=O)(=O)N2CCCC2)ccc1Cl | – | inconclusive: 5.39% [at 9.22 µM]
11 | COc1ccccc1NC(=O)N1CCc2[nH]c3ccc(F)cc3c2C1 | – | inconclusive: 12.5%
12 | C#CCN1C(=O)S/C(=C/C=C/c2ccc(N(C)C)cc2)C1=O | – | inconclusive: 11.4%
13 | CCc1oc(C(=O)O)cc1COC | – | inactive
14 | O=C(/C=C/Sc1ccccc1)c1ccc(Cl)cc1 | inconclusive: 35.5 µM [rising, single point] | –
15 | O=[N+]([O-])c1ccccc1Nc1c2ccccc2nc2ccccc12 | – | inconclusive: 16.2% [at 46 µM]
16 | Cc1ccccc1S(=O)(=O)Nc1nc2ccccc2nc1Cl | – | inconclusive: -28.6% [at 46 µM]
17 | CCN(CC(=O)Nc1sc2c(c1C#N)CCCC2)Cc1nc2ccccc2c(=O)[nH]1 | – | inactive
18 | C/C(=N\NC(=O)COc1ccccc1-c1ccccc1)c1cccnc1 | – | inactive
19 | CC(=O)N(/N=C1\Sc2ccccc2C1=O)c1ccc(C)cc1C | – | inconclusive: 19.3%
20 | CS(=O)(=O)N(CC(=O)NCc1ccco1)c1ccccc1Cl | – | inconclusive: 8.21%
21 | CCOC(=O)[C@@H](N)CS | – | inconclusive: -14.8%
22 | Cc1ccc(C)c(NC(=O)N2CCN(C(=O)c3nsc4ccccc34)CC2)c1 | – | inactive

Row | SMILES | Potency | ratio change, negative = inhibition
23 | COc1ccc(OC)c(NS(=O)(=O)c2ccc3c(c2)C(C)(C)C(=O)N3C)c1 | – | inconclusive: 7.43% [at 46 µM]
24 | CCOc1ccccc1N(CC)C(=O)Cn1ncc2c([nH]c3ccccc32)c1=O | – | inactive
25 | COc1ccc(NS(=O)(=O)c2cc(NC(=O)C3CCCO3)ccc2N2CCCC2)cc1 (stereo not given) | – | inconclusive: -33.5% [at 46 µM]
26 | CCCCC(=O)Nc1sc2c(c1-c1nc3ccccc3s1)CCN(C(C)=O)C2 | – | inconclusive: 39%
27 | O=C(c1ccccc1)N1CCN(CCc2ccncc2)CC1 | – | inconclusive: 24.6% [at 46 µM]
28 | O=C1N/C(=N\N=C\c2cccs2)SC1Cc1cccc(Cl)c1Cl (stereo not given) | – | inconclusive: -25.7%
29 | CCCCC/C=C\CC(O)/C=C/c1cccc(CC(O)CCCCO)n1 (stereo not given) | – | inactive
30 | CC(Sc1nnc(-c2cccs2)n1-c1ccccc1)C(=O)NCc1ccc2c(c1)OCO2 (stereo not given) | – | inactive
31 | O=C(Nc1nnc(S(=O)(=O)N2CCCc3ccccc32)s1)c1cccc(Cl)c1 | – | inconclusive: 4.1% [at 46 µM]
32 | COCCn1c(=O)c(C)nc2cnc(N3CCN(C)CC3)nc21 | – | inactive
33 | CCOC(=O)C1CCCN(Cc2ccc3c(c2)OCO3)C1 (stereo not given) | – | inactive
34 | CCc1cccc(C)c1NS(=O)(=O)c1c(C(=O)N2CCC(C)CC2)c(C)n(C)c1C | – | inconclusive: 14% [at 46 µM]
35 | CN(c1c[nH]c(=O)[nH]c1=O)C1CCCCC1 | – | inconclusive: 5.36% [at 46 µM]
36 | COc1ccc(OC(C)C(=O)Nc2ccccc2F)cc1 (stereo not given) | – | inconclusive: 15.7% [at 46 µM]
37 | C/C(=N\NC(=O)c1[nH]c2c([N+](=O)[O-])cc(C)cc2c1-c1ccccc1)c1cccnc1 | – | inconclusive: -8.55%
38 | O=C(Cc1cccs1)NCCCc1ccccc1 | – | inconclusive: -13% [at 46 µM]
39 | N#Cc1cnn2c(N)c(-c3ccc(Cl)cc3)cnc12 | inconclusive: 10 µM [activator, partial curve] | –
40 | CCc1ccc(NC(=O)N2CCOc3ccc(Cl)cc32)cc1 | – | inconclusive: 11.1% [at 46 µM]
41 | C=CCSc1nnc2c(n1)[nH]c1c(C)cccc12 | – | inactive
42 | Cc1c(Br)cc(C(=O)NCc2ccco2)c(C)c1C | – | inactive
43 | Cc1ccc(NC(=O)COC(=O)CCC(=O)c2ccc(Cl)cc2)cc1S(=O)(=O)N(C)C | – | inactive
44 | O=C(CNC(=O)c1ccco1)NCC(=O)OCc1ccccc1Br | – | inconclusive: -5.07%

Structures above that contain fluorine (2):
Row | SMILES | Potency | ratio change, negative = inhibition
11 | COc1ccccc1NC(=O)N1CCc2[nH]c3ccc(F)cc3c2C1 | – | inconclusive: 12.5%
36 | COc1ccc(OC(C)C(=O)Nc2ccccc2F)cc1 (stereo not given) | – | inconclusive: 15.7% [at 46 µM]

Two records drawn at random from the list so far, as already listed:
Row | SMILES | Potency | ratio change, negative = inhibition
33 | CCOC(=O)C1CCCN(Cc2ccc3c(c2)OCO3)C1 (stereo not given) | – | inactive
42 | Cc1c(Br)cc(C(=O)NCc2ccco2)c(C)c1C | – | inactive

(list continues)

Row | SMILES | Potency | ratio change, negative = inhibition
45 | O=C(NCc1ccc2c(c1)OCO2)c1ccc(CSCc2cccc(Cl)c2)o1 | inconclusive: 22.4 µM [fluorescent, partial curve] | –
46 | Cc1cc(C)c(NC(=O)Cn2nc(-c3ccncc3)ccc2=O)c(C)c1 | – | inactive
47 | COC(=O)c1[nH]nc2c1C(=O)N(C1CCCCC1)C2=O | – | inconclusive: -10.6%
48 | C/C(=N/NC(=O)c1ccco1)c1ccc(NC(=O)c2ccc(F)cc2)cc1 | – | inconclusive: 0.368%
49 | COc1ccc(C(=O)Nc2ccccc2Cc2ccccc2)c(OC)c1 | – | inconclusive: -8.79%
50 | CN1CCN(c2ccc(Cl)cc2NC(=O)c2ccc(=O)n(C)n2)CC1 | – | inconclusive: -32.5% [at 46 µM]
51 | Cc1c(N=C2NN=C(c3c[nH]c4ccccc34)CS2)c(=O)n(-c2ccccc2)n1C | – | inconclusive: -13.6% [at 46 µM]
52 | O=C(Nc1ccc(S(=O)(=O)N2CCCC2)cc1)c1ccc(CN2CCc3ccccc3C2)cc1 | inconclusive: 0.562 µM [fluorescent, full curve] | –
53 | Cc1ccc(OCCn2c(CCCO)nc3ccccc32)cc1 | – | inconclusive: -4.62%
54 | N#Cc1cnc(Nc2nc3ccccc3o2)nc1-c1ccccc1 | – | inactive
55 | COCCn1c(SCc2c(F)cccc2Cl)nc2c1c(=O)[nH]c(=O)n2C | – | inconclusive: 32.4%
56 | COc1ccc(CNC(=O)Cn2c(=O)nc(-c3ccccc3)c3ccccc32)cc1OC | – | inactive
57 | CCCCC(=O)NC1CC(=O)N(c2ccc3c(c2)OCCO3)C1 (stereo not given) | – | inconclusive: 0.351% [at 46 µM]
58 | CCc1cc(OCCCSc2nc(C)cc(=O)[nH]2)ccc1Cl | inconclusive: 8.91 µM [falling, partial curve] | –
59 | CCOc1ccccc1-c1cc(C(=O)N/N=C/c2ccc(O)c(OC)c2)c2ccccc2n1 | – | inconclusive: -42.8%
60 | COc1cc(C(=O)NS(=O)(=O)c2ccccc2C)ccc1Cc1cn(C)c2ccc(NC(=O)OC3CCCC3)cc12 | – | inconclusive: -15.3%
61 | CC(C)c1ccc(N(CC(=O)NN=C2CCN(C)CC2)S(=O)(=O)c2ccccc2)cc1 | – | inactive: -2.84% [at 9.22 µM]
62 | C=CCSc1nnc(-c2cnn(-c3ccccc3)c2-n2cccc2)n1C | – | inactive
63 | Clc1cccc(OCCCN2CCCC2)c1Cl | – | inactive
64 | Cn1c(C(C(=O)NCC2CCCO2)N(CCc2ccccc2)C(=O)Cn2nnc3ccccc32)nc2ccccc21 (stereo not given) | – | inconclusive: 4.36%
65 | COCCNCC1C(Oc2ccc(Cl)cc2)C(=O)N1c1ccccc1C (stereo not given) | – | inconclusive: 16.4% [at 46 µM]
66 | COc1cccc(-c2nnc(SCN3C(=O)c4ccccc4C3=O)n2C)c1 | – | inconclusive: -7.02%

Row | SMILES | Potency | ratio change, negative = inhibition
67 | Cc1cccc(S(=O)(=O)Nc2nc3ccccc3nc2NCc2ccc3c(c2)OCO3)c1 | – | inactive
68 | COc1ccc(-c2cc(-c3nnc(COC(=O)C4CC4C)o3)c3ccccc3n2)cc1OC (stereo not given) | inconclusive: 14.1 µM [falling, partial curve, poor fit] | –
69 | CNC(=O)c1sccc1SCc1c(Cl)cccc1Cl | – | inactive
70 | COc1ccc(/C=C/c2cc(-c3ccc(C)cc3)o[n+]2C)cc1 | – | inactive
71 | c1ccc(Cc2nnc3sc(-c4cccs4)nn23)cc1 | – | inactive
72 | Cc1nc([N+](=O)[O-])c(N2CCN(C)CC2)n1Cc1ccccc1 | – | inactive
73 | N#Cc1nc(-c2ccc(OCc3ccccc3)cc2)oc1N1CCC(C(N)=O)CC1 | – | inconclusive: 16.5%
74 | O=C(NC(NC(=S)Nc1c(Cl)cc(Cl)cc1Cl)C(Cl)(Cl)Cl)OCc1ccccc1 (stereo not given) | inconclusive: 2.82 µM [falling, full curve, poor fit] | –
75 | O=C(N1CCCCCC1)n1c(Cc2ccccc2)nc2ccccc21 | – | inactive
76 | COc1cc(OC)c(N(C)C(=O)CCNC(=O)Cn2cnc3ccccc3c2=O)cc1Cl | – | inactive
77 | Cc1cccc(C)c1OCCNC(=O)OCc1ccccc1 | – | inconclusive: -7.52% [at 46 µM]
78 | Oc1ccc(Cl)cc1C1=NNC(c2ccc(Cl)cc2)C1 (stereo not given) | inconclusive: 35.5 µM [falling, single point] | –
79 | Cn1c(SCc2c(Cl)cccc2Cl)nnc1-c1cccs1 | – | inconclusive: 9.54%
80 | CCn1c(/C=C/c2ccccc2)nc2ccccc2c1=O | – | inconclusive: -22.8% [at 46 µM]
81 | O=C(NC(=S)Nc1ccc2[nH]ncc2c1)c1ccccc1 | – | inactive
82 | Cn1c(SCC(=O)N2CCCc3ccccc32)nnc1-c1ccccc1 | – | inconclusive: 2.85%
83 | N#Cc1cc([N+](=O)[O-])c(-n2nnc3ccccc32)c([N+](=O)[O-])c1 | – | inactive
84 | NC(=O)c1nn(-c2ccccc2)nc1NC(=O)CSc1nnnn1-c1ccc(Cl)cc1 | – | inconclusive: -23%
85 | C=CCSc1nc2c(c(=N)n1CC=C)C1CCCC1S2 (stereo not given) | inconclusive: 25.1 µM [fluorescent, single point] | –
